Assay results: PMC10715029, “Interaction and assembly of the DNA replication core proteins of Kaposi’s sarcoma-associated herpesvirus” (Microbiology Spectrum, 2023)
These are yes or no findings as the source states them, for the method shown.

Biological target: T1, GAL4-ORF6 (Kaposi's sarcoma-associated herpesvirus (KSHV, human herpesvirus 8)) (UniProt Q2HRD3)
T1 sequence: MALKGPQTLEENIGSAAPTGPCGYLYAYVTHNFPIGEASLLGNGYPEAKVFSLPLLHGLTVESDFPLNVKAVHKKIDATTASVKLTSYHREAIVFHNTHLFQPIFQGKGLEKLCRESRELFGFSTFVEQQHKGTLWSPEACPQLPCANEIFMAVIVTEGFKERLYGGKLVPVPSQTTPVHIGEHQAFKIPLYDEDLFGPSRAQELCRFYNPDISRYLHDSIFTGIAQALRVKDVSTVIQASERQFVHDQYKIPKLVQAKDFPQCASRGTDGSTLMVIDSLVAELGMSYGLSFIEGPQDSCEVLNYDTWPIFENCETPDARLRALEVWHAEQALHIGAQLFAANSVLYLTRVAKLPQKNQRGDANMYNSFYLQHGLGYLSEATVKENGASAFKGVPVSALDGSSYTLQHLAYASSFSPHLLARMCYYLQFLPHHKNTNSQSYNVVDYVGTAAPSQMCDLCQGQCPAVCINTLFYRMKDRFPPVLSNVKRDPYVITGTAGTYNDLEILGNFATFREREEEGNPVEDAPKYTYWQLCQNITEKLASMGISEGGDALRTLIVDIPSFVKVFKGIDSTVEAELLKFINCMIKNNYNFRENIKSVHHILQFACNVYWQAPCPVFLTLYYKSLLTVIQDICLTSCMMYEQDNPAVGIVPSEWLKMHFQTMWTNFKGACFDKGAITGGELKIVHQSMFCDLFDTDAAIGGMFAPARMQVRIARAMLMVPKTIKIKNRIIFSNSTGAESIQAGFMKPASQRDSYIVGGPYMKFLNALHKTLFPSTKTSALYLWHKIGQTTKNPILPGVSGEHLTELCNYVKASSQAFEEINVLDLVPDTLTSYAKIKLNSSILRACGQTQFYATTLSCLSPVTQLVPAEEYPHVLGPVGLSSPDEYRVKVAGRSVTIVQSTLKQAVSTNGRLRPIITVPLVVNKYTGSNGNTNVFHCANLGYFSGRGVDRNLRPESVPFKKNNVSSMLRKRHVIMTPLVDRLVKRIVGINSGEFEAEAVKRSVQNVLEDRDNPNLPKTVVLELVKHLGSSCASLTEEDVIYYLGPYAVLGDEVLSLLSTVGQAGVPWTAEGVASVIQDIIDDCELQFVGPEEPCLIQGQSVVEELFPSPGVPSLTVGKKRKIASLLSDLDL
Assay: two-hybrid; mammalian two-hybrid (GAL4/VP16) in 293T cells, pGal4(5×)-Luc reporter, GAL4 and VP16 fusions coexpressed with further FLAG-tagged core replication proteins, luciferase at 24 h, fold activation over empty vector; radicicol (0.25-1 µM) inhibited the activation by GAL4-ORF56, VP16-ORF44 and F-ORF40/41 dose-dependently

B1: VP16-ORF9 (protein, UniProt Q2HRD0 1-1012)
chain: MDFFNPFIDPTRGGPRNTVRQPTPSQSPTVPSETRVCRLIPACFQTPGRPGVVAVDTTFPPTYFQGPKRGEVFAGETGSIWKTRRGQARNAPMSHLIFHVYDIVETTYTADRCEDVPFSFQTDIIPSGTVLKLLGRTLDGASVCVNVFRQRCYFYTLAPQGVNLTHVLQQALQAGFGRASCGFSTEPVRKKILRAYDTQQYAVQKITLSSSPMMRTLSDRLTTCGCEVFESNVDAIRRFVLDHGFSTFGWYECSNPAPRTQARDSWTELEFDCSWEDLKFIPERTEWPPYTILSFDIECMGEKGFPNATQDEDMIIQISCVLHTVGNDKPYTRMLLGLGTCDPLPGVEVFEFPSEYDMLAAFLSMLRDYNVEFITGYNIANFDLPYIIARATQVYDFKLQDFTKIKTGSVFEVHQPRGGSDGGNFMRSQSKVKISGIVPIDMYQVCREKLSLSDYKLDTVAKQCLGRQKDDISYKDIPPLFKSGPDGRAKVGNYCVIDSVLVMDLLLRFQTHVEISEIAKLAKIPTRRVLTDGQQIRVFSCLLEAAATEGYILPVPKGDAVSGYQGATVISPSPGFYDDPVLVVDFASLYPSIIQAHNLCYSTLIPGDSLHLHPHLSPDDYETFVLSGGPVHFVKKHKRESLLAKLLTVWLAKRKEIRKTLASCTDPALKTILDKQQLAIKVTCNAVYGFTGVASGILPCLNIAETVTLQGRKMLERSQAFVEAISPERLAGLLRRPVDVSPDARFKVIYGDTDSLFICCMGFNMDSVSDFAEELASITTNTLFRSPIKLEAEKIFKCLLLLTKKRYVGVLSDDKVLMKGVDLIRKTACRFVQEKSSQVLDLILREPSVKAAAKLISGQATDWVYREGLPEGFVKIIQVLNASHRELCERSVPVDKLTFTTELSRPLADYKTQNLPHLTVYQKLQARQEELPQIHDRIPYVFVDAPGSLRSELAEHPEYVKQHGLRVAVDLYFDKLVHAVANIIQCLFQNNTSATVAILYNFLDIPVTFPTP
For B1, the binding was “no binding”.
